Source: PubChem BioAssay AID1224829 (NIAID, 2016)

- Aim: 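Follow-up of TLR4-NF-kappaB regulators using six separate siRNAs for each gene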 (follow-up of hits)
- Cell system: mouse RAW264.7 G9 macrophage reporter cells
- Reagent: single siRNA against mouse genes, 100 nM
- Time to read-out: 2 days of siRNA knock-down, then 40 min of LPS before fixing
- Challenge: LPS (Salmonella minnesota R595) at 10 ng/ml
- Read-out: 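High-content images after 40 min LPS exposure; GFP-p65 nucleus to surrounding ring signal ratio, normalised to plate median and non-targeting control wells, expressed as z-score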
- Direction: p65 translocation z-score and gene median z-score, per vendor: higher = more nuclear NF-kappaB p65 after LPS
- Call rule: 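An siRNA is called active when the mean z-score of its two replicates is above 2 or below -2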
- Meaning of the calls: active = changed p65 translocation (either direction); inactive = no clear change
The deposit covers about 3,800 reagents; this is a random part of them. 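Calls cover raised and lowered translocation; gene median uses one vendor's three siRNAs; qiagen siRNAs acted more weakly than ambion siRNAs.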 Entries without a mark were called inactive. Reagents against one gene are numbered here. Reagent sequences are not shown.

gene	reagent	siRNA vendor or control pool	p65 translocation z-score, replicate mean	p65 translocation z-score, replicate 1	p65 translocation z-score, replicate 2	gene median z-score, per vendor
Zfp418 (zinc finger protein 418)	1	ambion single siRNA	0.187	-0.508	0.883	-0.834
Zfp418 (zinc finger protein 418)	2	ambion single siRNA	-1.46	-0.32	-2.59	-0.834
Zfp418 (zinc finger protein 418)	3	ambion single siRNA	-1.44	-1.16	-1.72	-0.834
Zfp418 (zinc finger protein 418)	4	qiagen single siRNA	-0.972	-0.0495	-1.89	1.18
Zfp418 (zinc finger protein 418)	5	qiagen single siRNA	1.34	0.893	1.78	1.18
Zfp418 (zinc finger protein 418)	6	qiagen single siRNA	1.68	1.9	1.46	1.18
Eif4ebp1	1	ambion single siRNA	-0.126	0.455	-0.706	-0.706
Eif4ebp1	2	ambion single siRNA	-0.425	0.0884	-0.939	-0.706
Eif4ebp1	3	ambion single siRNA	-2.01 (active)	-2.01		-0.706
Eif4ebp1	4	qiagen single siRNA	-0.539	-1.51	0.427	-1.17
Eif4ebp1	5	qiagen single siRNA	0.8	-0.825	2.43	-1.17
Eif4ebp1	6	qiagen single siRNA	-3.93 (active)	-4.37	-3.48	-1.17

The list goes on; the last 3 above are carried over.
gene	reagent	siRNA vendor or control pool	p65 translocation z-score, replicate mean	p65 translocation z-score, replicate 1	p65 translocation z-score, replicate 2	gene median z-score, per vendor
Eif4ebp1	4	qiagen single siRNA	-0.539	-1.51	0.427	-1.17
Eif4ebp1	5	qiagen single siRNA	0.8	-0.825	2.43	-1.17
Eif4ebp1	6	qiagen single siRNA	-3.93 (active)	-4.37	-3.48	-1.17
Cdx1 (caudal type homeobox 1)	1	ambion single siRNA	-6.72 (active)	-7.5	-5.94	-5.67
Cdx1 (caudal type homeobox 1)	2	ambion single siRNA	-4.87 (active)	-4.34	-5.39	-5.67
Cdx1 (caudal type homeobox 1)	3	ambion single siRNA				-5.67
Cdx1 (caudal type homeobox 1)	4	qiagen single siRNA	2.14 (active)	1.85	2.44	1.82
Cdx1 (caudal type homeobox 1)	5	qiagen single siRNA	2.55 (active)	1.79	3.31	1.82
Cdx1 (caudal type homeobox 1)	6	qiagen single siRNA	-2.11 (active)	-1.77	-2.44	1.82
Polr1a (polymerase (RNA) I polypeptide A)	1	ambion single siRNA	-2.12 (active)	-2.75	-1.48	-2.18
Polr1a (polymerase (RNA) I polypeptide A)	2	ambion single siRNA	-3.21 (active)	-1.76	-4.65	-2.18
Polr1a (polymerase (RNA) I polypeptide A)	3	ambion single siRNA	-1.45	-0.322	-2.59	-2.18
Polr1a (polymerase (RNA) I polypeptide A)	4	qiagen single siRNA	3.03 (active)	2.98	3.08	1.19
Polr1a (polymerase (RNA) I polypeptide A)	5	qiagen single siRNA	0.0945	-1	1.19	1.19
Polr1a (polymerase (RNA) I polypeptide A)	6	qiagen single siRNA	-1.8	-1.8		1.19
